Values quoted from earlier work in patent US7919510B2 (priority 2005, dated 2011).

Legend:
[1] = human migraine, single i.v. administration; cited from earlier work
[2] = 11 patients with persistent shock, up to 30 days; cited from earlier work

What does the source list for CN=C(N)NCCC[C@H](N)C(=O)O.Cl [L-NMMA, L-N^G methylarginine hydrochloride]?
response rate [1]: 67%; survival rate [2]: 72%
